Measurements from the supplement of paper PMC10849652.
Some of the results follow.

Protein sequences, listed by entry. Tags and fused reporters are not part of them. Lines headed by an entry give the natural chain unless they say otherwise; changes in a name come on top.
UniProt P42025, whole entry, looked up: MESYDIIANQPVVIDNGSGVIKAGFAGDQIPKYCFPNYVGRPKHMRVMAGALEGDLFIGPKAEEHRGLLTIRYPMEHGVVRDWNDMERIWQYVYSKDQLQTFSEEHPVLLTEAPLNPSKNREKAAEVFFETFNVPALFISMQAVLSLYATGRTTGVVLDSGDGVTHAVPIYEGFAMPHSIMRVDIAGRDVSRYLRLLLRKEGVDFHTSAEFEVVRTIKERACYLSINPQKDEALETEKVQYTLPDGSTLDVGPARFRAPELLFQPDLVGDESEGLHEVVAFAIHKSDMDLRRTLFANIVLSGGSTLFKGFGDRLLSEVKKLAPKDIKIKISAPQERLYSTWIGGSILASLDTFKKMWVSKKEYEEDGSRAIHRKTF
UniProt Q15067: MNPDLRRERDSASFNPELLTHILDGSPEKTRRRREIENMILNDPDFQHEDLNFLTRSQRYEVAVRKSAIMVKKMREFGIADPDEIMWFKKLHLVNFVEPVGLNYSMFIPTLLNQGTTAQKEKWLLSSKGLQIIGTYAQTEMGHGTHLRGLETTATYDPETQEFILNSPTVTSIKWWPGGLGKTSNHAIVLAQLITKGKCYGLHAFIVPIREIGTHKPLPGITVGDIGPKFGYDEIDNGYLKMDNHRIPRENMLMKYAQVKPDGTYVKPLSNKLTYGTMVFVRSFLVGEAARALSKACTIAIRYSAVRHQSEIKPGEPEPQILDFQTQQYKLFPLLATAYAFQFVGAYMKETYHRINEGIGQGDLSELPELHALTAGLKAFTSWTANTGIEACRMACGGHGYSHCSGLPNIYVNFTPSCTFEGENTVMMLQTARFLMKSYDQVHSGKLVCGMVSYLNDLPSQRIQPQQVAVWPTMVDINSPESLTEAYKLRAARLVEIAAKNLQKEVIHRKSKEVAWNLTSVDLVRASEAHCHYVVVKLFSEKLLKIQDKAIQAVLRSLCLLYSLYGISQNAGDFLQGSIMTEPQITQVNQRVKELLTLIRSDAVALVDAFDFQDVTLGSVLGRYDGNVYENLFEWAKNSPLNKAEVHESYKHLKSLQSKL
UniProt Q9NX46: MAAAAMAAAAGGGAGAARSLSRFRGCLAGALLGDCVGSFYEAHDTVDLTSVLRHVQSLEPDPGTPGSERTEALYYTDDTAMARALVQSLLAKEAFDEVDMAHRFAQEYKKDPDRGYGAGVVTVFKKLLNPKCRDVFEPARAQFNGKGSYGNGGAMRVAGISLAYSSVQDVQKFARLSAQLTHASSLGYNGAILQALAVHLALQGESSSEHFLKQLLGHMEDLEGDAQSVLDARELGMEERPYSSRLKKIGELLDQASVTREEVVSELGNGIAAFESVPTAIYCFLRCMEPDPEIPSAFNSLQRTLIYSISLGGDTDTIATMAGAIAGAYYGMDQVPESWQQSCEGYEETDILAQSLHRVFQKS
UniProt Q9NRZ7: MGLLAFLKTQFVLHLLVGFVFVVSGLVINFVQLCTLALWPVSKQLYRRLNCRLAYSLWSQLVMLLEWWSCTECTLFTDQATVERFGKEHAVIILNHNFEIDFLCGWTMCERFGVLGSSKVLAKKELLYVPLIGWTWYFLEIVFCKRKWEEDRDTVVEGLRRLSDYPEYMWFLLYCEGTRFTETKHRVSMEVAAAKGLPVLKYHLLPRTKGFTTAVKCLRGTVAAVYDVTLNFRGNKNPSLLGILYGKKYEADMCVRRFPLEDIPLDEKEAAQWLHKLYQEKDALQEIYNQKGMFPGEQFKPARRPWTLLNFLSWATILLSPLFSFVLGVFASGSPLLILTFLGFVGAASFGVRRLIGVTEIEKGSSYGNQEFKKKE
UniProt Q53H12: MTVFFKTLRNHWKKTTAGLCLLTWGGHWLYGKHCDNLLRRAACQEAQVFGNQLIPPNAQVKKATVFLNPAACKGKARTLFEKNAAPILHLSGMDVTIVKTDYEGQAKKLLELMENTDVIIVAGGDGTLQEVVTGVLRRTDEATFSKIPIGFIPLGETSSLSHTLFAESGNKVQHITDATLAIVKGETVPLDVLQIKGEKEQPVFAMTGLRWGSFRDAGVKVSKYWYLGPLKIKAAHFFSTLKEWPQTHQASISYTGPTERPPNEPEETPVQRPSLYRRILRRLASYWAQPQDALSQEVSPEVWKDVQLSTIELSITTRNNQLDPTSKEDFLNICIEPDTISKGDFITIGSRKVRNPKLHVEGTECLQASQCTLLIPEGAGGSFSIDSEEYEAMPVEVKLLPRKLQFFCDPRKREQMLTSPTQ
UniProt P42330: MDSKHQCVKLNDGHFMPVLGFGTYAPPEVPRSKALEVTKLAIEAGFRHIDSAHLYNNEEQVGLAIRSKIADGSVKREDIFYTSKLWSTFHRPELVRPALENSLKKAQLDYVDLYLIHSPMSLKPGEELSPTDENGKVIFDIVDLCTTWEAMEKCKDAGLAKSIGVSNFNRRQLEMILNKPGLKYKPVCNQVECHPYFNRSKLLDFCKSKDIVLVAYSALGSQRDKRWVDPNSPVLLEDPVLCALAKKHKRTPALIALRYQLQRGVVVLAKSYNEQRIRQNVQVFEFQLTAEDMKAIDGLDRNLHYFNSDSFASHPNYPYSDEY
UniProt O60488: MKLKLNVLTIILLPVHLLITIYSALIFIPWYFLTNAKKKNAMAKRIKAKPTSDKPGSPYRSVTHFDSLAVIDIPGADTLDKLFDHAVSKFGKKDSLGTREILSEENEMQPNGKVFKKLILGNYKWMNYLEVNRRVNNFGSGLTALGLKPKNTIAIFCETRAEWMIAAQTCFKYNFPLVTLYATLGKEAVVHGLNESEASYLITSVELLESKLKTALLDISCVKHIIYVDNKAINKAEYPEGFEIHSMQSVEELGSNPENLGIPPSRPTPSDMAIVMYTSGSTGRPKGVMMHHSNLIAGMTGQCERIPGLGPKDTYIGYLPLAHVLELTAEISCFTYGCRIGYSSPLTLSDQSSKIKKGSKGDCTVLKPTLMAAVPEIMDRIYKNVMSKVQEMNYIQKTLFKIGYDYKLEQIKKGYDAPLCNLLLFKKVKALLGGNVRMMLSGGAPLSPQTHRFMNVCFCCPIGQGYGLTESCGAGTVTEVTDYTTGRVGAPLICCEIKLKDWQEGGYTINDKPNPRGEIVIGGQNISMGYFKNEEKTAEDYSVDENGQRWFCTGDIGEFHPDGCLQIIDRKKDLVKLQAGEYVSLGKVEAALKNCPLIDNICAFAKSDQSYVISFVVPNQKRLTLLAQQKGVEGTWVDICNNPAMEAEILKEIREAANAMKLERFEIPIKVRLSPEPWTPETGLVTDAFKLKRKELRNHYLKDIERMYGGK
UniProt Q8N142: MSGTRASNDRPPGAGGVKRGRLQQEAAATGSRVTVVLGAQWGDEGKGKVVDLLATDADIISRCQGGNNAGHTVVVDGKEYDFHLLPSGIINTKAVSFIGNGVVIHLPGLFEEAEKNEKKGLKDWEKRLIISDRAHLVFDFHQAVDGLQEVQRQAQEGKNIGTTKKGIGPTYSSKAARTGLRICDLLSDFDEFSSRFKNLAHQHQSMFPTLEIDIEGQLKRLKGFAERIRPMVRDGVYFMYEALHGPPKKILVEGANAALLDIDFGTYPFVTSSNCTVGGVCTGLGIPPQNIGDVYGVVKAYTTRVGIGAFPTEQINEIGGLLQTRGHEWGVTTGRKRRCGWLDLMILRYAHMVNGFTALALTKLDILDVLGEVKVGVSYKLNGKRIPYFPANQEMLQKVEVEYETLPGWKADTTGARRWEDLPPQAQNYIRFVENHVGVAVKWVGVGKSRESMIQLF
UniProt P11117: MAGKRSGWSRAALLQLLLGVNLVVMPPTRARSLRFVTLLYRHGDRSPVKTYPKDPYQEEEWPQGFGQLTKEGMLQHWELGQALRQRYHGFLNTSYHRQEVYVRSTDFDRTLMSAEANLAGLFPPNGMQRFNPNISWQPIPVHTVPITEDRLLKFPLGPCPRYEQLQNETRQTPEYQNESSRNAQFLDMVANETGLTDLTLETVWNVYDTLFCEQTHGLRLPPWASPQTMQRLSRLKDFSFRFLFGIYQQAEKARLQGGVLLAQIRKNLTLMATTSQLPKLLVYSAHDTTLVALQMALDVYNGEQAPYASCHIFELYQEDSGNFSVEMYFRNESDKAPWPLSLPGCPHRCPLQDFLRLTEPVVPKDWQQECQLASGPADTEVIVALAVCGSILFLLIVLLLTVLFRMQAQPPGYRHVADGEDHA
UniProt Q03154: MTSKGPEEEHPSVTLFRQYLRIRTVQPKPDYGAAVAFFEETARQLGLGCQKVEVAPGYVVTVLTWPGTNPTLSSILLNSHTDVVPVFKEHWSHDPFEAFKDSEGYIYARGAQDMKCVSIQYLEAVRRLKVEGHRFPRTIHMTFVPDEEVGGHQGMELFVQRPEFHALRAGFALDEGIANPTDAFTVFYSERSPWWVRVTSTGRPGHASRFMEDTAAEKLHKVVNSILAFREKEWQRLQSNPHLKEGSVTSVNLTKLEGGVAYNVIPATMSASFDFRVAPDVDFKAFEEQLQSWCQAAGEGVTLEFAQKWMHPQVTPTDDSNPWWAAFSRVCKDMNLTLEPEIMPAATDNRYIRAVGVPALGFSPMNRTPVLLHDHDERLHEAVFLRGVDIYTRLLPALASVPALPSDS
UniProt Q96HN2, whole entry, looked up: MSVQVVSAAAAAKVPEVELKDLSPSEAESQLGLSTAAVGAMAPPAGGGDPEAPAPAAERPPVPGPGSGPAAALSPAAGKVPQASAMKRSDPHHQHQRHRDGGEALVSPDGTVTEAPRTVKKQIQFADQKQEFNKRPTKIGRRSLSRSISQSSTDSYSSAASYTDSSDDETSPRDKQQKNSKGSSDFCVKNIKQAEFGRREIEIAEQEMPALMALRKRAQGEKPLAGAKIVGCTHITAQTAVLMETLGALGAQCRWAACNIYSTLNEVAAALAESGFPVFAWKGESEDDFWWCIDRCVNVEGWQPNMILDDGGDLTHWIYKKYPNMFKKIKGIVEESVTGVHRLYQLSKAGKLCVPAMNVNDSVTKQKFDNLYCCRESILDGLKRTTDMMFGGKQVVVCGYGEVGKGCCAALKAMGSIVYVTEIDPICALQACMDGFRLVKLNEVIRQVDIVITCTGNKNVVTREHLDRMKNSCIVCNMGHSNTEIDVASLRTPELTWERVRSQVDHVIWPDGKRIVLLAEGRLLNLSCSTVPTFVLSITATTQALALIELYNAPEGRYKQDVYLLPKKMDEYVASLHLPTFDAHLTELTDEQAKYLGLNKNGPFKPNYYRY
UniProt O14734: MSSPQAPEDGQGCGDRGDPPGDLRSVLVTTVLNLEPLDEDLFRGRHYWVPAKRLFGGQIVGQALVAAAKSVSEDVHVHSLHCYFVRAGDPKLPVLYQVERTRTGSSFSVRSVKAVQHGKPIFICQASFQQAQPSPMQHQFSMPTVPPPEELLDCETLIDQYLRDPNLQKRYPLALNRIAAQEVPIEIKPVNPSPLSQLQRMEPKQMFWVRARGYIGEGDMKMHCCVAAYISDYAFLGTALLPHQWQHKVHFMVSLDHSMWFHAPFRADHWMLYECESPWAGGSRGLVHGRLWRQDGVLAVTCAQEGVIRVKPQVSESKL

Experiments:
Experiment in all cases: log2 fold change, soluble protein after heating vs DMSO (PISA); higher = thermal stabilisation; K562 lysate, 10 uM; active = over 0.2 and 3.5 SD of the protein, either way, in both replicates (recomputed)
lapatinib = compound: CS(=O)(=O)CCNCc1ccc(-c2ccc3ncnc(Nc4ccc(OCc5cccc(F)c5)c(Cl)c4)c3c2)o1 [lapatinib]
Method in brief: (§1)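 Pellets of K562 cells were dounce-homogenised in PBS pH 7.4 with 1 mM MgCl2, and the crude extract was held at 1 mg/mL protein for a 30 min treatment with 10 μM compound. Aliquots were heated for 3 min over 48°C-58°C and pooled before NP-40 was added to 0.5% at 4°C. The supernatant from 21,000xg for 90 min was quantified by TMTpro 16plex LC-MS/MS with channel sums equalised. Values are reported from duplicates as log-two fold change in thermal stability relative to solvent controls.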

pictilisib = compound: CS(=O)(=O)N1CCN(Cc2cc3nc(-c4cccc5[nH]ncc45)nc(N4CCOCC4)c3s2)CC1 [pictilisib]
Method in brief: as §1

crizotinib = compound: C[C@@H](Oc1cc(-c2cnn(C3CCNCC3)c2)cnc1N)c1c(Cl)ccc(F)c1Cl [crizotinib]
Method in brief: as §1

[1] = compound: C[C@H](C1=CC=C(C=C1)C(=O)NC2=C3C=CNC3=NC=C2)N
Method in brief: as §1

duvelisib = compound: C[C@H](Nc1ncnc2nc[nH]c12)c1cc2cccc(Cl)c2c(=O)n1-c1ccccc1 [duvelisib]
Method in brief: as §1

gandotinib = compound: Cc1cc(Nc2cc(CN3CCOCC3)c3nc(C)c(Cc4ccc(Cl)cc4F)n3n2)n[nH]1 [gandotinib]
Method in brief: as §1

tozasertib = compound: Cc1cc(Nc2cc(N3CCN(C)CC3)nc(Sc3ccc(NC(=O)C4CC4)cc3)n2)n[nH]1 [tozasertib]
Method in brief: as §1

doramapimod = compound: Cc1ccc(-n2nc(C(C)(C)C)cc2NC(=O)Nc2ccc(OCCN3CCOCC3)c3ccccc23)cc1 [doramapimod]
Method in brief: as §1

bafetinib = compound: Cc1ccc(NC(=O)c2ccc(CN3CC[C@H](N(C)C)C3)c(C(F)(F)F)c2)cc1Nc1nccc(-c2cncnc2)n1 [bafetinib]
Method in brief: as §1

[2] = compound: Cc1cccc(CC(=O)N2CCc3c2ccc(-c2cn(C)c4ncnc(N)c24)c3F)n1
Method in brief: as §1

nilotinib = compound: Cc1cn(-c2cc(NC(=O)c3ccc(C)c(Nc4nccc(-c5cccnc5)n4)c3)cc(C(F)(F)F)c2)cn1 [nilotinib]
Method in brief: as §1

[3] = compound: Cc1nc(Nc2n[nH]c3c2CN(C(=O)N[C@H](CN(C)C)c2ccccc2)C3(C)C)c2sccc2n1
Method in brief: as §1

dasatinib = compound: Cc1nc(Nc2ncc(C(=O)Nc3c(C)cccc3Cl)s2)cc(N2CCN(CCO)CC2)n1 [dasatinib]
Method in brief: as §1

[4] = compound: Cc1ncc(-c2ccnc(Nc3ccc(S(C)(=O)=O)cc3)n2)n1C(C)C
Method in brief: as §1

[5] = compound: Cn1cc(-c2ccc3c(c2)CCN3C(=O)Cc2cccc(C(F)(F)F)c2)c2c(N)ncnc21
Method in brief: as §1

quisinostat = compound: Cn1cc(CNCC2CCN(c3ncc(C(=O)NO)cn3)CC2)c2ccccc21 [quisinostat]
Method in brief: as §1

tipifarnib = compound: Cn1cncc1[C@@](N)(c1ccc(Cl)cc1)c1ccc2c(c1)c(-c1cccc(Cl)c1)cc(=O)n2C [tipifarnib]
Method in brief: as §1

[6] = compound: NC(=O)Nc1cc(-c2cccc(F)c2)sc1C(=O)N[C@H]1CCCNC1
Method in brief: as §1

[7] = compound: NC(=O)c1cnc(N[C@@H]2CCCC[C@@H]2N)nc1Nc1cccc(-n2nccn2)c1
Method in brief: as §1

[8] = compound: NC1(c2ccc(-c3nc4ccn5c(=O)[nH]nc5c4cc3-c3ccccc3)cc2)CCC1
Method in brief: as §1

Measured: log2 fold change

ACTR1B (UniProt P42025)
inactive: lapatinib -0.021 | pictilisib 0.038 | crizotinib -0.005 | [1] -0.017 | duvelisib 0.016 | gandotinib 0.005 | tozasertib -0.029 | doramapimod -0.008 | bafetinib -0.006 | [2] -0.039 | nilotinib -0.041 | [3] 0.038 | dasatinib -0.032 | [4] 0.015 | [5] -0.067 | quisinostat 0 | tipifarnib -0.02 | [6] 0.056 | [7] 0.015 | [8] -0.025

ACOX1 isoform 2 (UniProt Q15067)
inactive: lapatinib -0.003 | pictilisib -0.003 | crizotinib -0.004 | [1] -0.112 | duvelisib -0.012 | gandotinib 0.167 | tozasertib 0.043 | doramapimod 0.024 | bafetinib -0.01 | [2] 0.054 | nilotinib 0.104 | [3] 0.005 | dasatinib 0.065 | [4] -0.011 | [5] 0.019 | quisinostat 0 | tipifarnib -0.042 | [6] -0.018 | [7] -0.039 | [8] 0

ADPRHL2 (UniProt Q9NX46)
inactive: lapatinib 0.008 | pictilisib -0.033 | crizotinib 0.031 | [1] -0.026 | duvelisib -0.034 | gandotinib -0.079 | tozasertib 0.027 | doramapimod -0.048 | bafetinib -0.012 | [2] 0.059 | nilotinib -0.031 | [3] 0.023 | dasatinib -0.031 | [4] 0.037 | [5] 0.011 | quisinostat 0.124 | tipifarnib -0.005 | [6] -0.005 | [7] 0.001 | [8] 0.006

ACTA1 (UniProt P68133)
inactive: lapatinib -0.012 | pictilisib 0.002 | crizotinib 0 | [1] -0.002 | duvelisib -0.024 | gandotinib -0.028 | tozasertib 0.021 | doramapimod -0.008 | bafetinib -0.007 | [2] -0.032 | nilotinib -0.013 | [3] -0.02 | dasatinib -0.018 | [4] -0.009 | [5] -0.029 | quisinostat -0.035 | tipifarnib 0.016 | [6] 0.008 | [7] 0.003 | [8] -0.03

AGPAT3 isoform 3 (UniProt Q9NRZ7)
inactive: lapatinib -0.045 | pictilisib 0.013 | crizotinib -0.063 | [1] -0.085 | duvelisib -0.033 | gandotinib 0.075 | tozasertib 0.019 | doramapimod 0.009 | bafetinib -0.102 | [2] 0.063 | nilotinib -0.005 | [3] -0.054 | dasatinib -0.04 | [4] -0.043 | [5] 0.011 | quisinostat -0.073 | tipifarnib -0.021 | [6] 0.017 | [7] 0.012 | [8] -0.042

AK2 (UniProt P54819)
inactive: lapatinib 0.058 | pictilisib -0.005 | crizotinib -0.007 | [1] 0.076 | duvelisib -0.031 | gandotinib 0 | tozasertib 0 | doramapimod 0.061 | bafetinib 0.005 | [2] -0.046 | nilotinib 0.003 | [3] -0.006 | dasatinib 0.079 | [4] -0.013 | [5] -0.022 | quisinostat 0.024 | tipifarnib 0.007 | [6] -0.066 | [7] 0.013 | [8] 0.004

AGK (UniProt Q53H12)
inactive: lapatinib -0.021 | pictilisib 0.017 | crizotinib -0.022 | [1] 0.04 | duvelisib -0.012 | gandotinib -0.099 | tozasertib -0.02 | doramapimod -0.003 | bafetinib 0 | [2] -0.019 | nilotinib -0.035 | [3] -0.022 | dasatinib -0.019 | [4] 0.016 | [5] 0.008 | quisinostat 0.143 | tipifarnib -0.011 | [6] 0.002 | [7] -0.008 | [8] -0.054

AKR1C3 (UniProt P42330)
inactive: lapatinib -0.03 | pictilisib -0.024 | crizotinib -0.039 | [1] -0.014 | duvelisib -0.036 | gandotinib 0.052 | tozasertib -0.003 | doramapimod 0.022 | bafetinib 0.022 | [2] -0.026 | nilotinib -0.007 | [3] 0.046 | dasatinib 0.209 | [4] -0.079 | [5] -0.038 | quisinostat -0.055 | tipifarnib 0.04 | [6] 0.036 | [7] -0.059 | [8] -0.013

ACSL4 (UniProt O60488)
inactive: lapatinib 0.008 | pictilisib 0.028 | crizotinib -0.042 | [1] -0.016 | duvelisib 0.026 | gandotinib -0.065 | tozasertib 0.002 | doramapimod 0.025 | bafetinib -0.093 | [2] -0.003 | nilotinib -0.011 | [3] 0.008 | dasatinib 0.004 | [4] 0.018 | [5] 0.02 | quisinostat -0.018 | tipifarnib -0.051 | [6] 0.029 | [7] -0.032 | [8] -0.074

ADSS1 (UniProt Q8N142)
inactive: lapatinib -0.069 | pictilisib -0.051 | crizotinib 0.013 | [1] -0.055 | duvelisib -0.022 | gandotinib 0.09 | tozasertib 0.004 | doramapimod 0.006 | bafetinib -0.024 | [2] 0.031 | nilotinib -0.061 | [3] -0.043 | dasatinib 0.029 | [4] 0.032 | [5] -0.019 | quisinostat -0.006 | tipifarnib 0.049 | [6] -0.002 | [7] 0.029 | [8] 0.009

ACP2 (UniProt P11117)
inactive: lapatinib -0.016 | pictilisib -0.043 | crizotinib 0.025 | [1] -0.076 | duvelisib -0.041 | gandotinib 0.018 | tozasertib 0.006 | doramapimod 0.019 | bafetinib -0.009 | [2] 0.078 | nilotinib 0.036 | [3] -0.034 | dasatinib 0.127 | [4] 0 | [5] -0.032 | quisinostat -0.053 | tipifarnib -0.007 | [6] 0.043 | [7] 0 | [8] -0.057

ACTR3B (UniProt Q9P1U1)
inactive: lapatinib 0.033 | pictilisib -0.207 | crizotinib 0.003 | [1] 0.017 | duvelisib -0.07 | gandotinib -0.005 | tozasertib 0.062 | doramapimod -0.02 | bafetinib 0.014 | [2] -0.002 | nilotinib 0.023 | [3] 0.15 | dasatinib 0.003 | [4] -0.118 | [5] 0.051 | quisinostat 0 | tipifarnib 0.021 | [6] 0.069 | [7] -0.033 | [8] -0.041

AGO4 (UniProt Q9HCK5)
inactive: lapatinib 0.013 | pictilisib -0.076 | crizotinib -0.01 | [1] -0.113 | duvelisib 0.014 | gandotinib 0.048 | tozasertib -0.001 | doramapimod -0.014 | bafetinib -0.004 | [2] 0.002 | nilotinib -0.152 | [3] 0.07 | dasatinib 0 | [4] 0.004 | [5] -0.022 | quisinostat -0.037 | tipifarnib 0.005 | [6] 0.015 | [7] 0.014 | [8] -0.002

ACY1 (UniProt Q03154)
inactive: lapatinib 0.004 | pictilisib -0.03 | crizotinib 0.049 | [1] -0.015 | duvelisib 0.04 | gandotinib 0.016 | tozasertib 0.032 | doramapimod 0.004 | bafetinib 0.001 | [2] -0.012 | nilotinib 0.022 | [3] 0.001 | dasatinib 0.013 | [4] -0.011 | [5] 0.012 | quisinostat 0.049 | tipifarnib 0.025 | [6] -0.006 | [7] -0.007 | [8] 0.037

Looked up one by one from the list above, two records:
ADSS1 (UniProt Q8N142)
inactive: lapatinib -0.069 | pictilisib -0.051 | crizotinib 0.013 | [1] -0.055 | duvelisib -0.022 | gandotinib 0.09 | tozasertib 0.004 | doramapimod 0.006 | bafetinib -0.024 | [2] 0.031 | nilotinib -0.061 | [3] -0.043 | dasatinib 0.029 | [4] 0.032 | [5] -0.019 | quisinostat -0.006 | tipifarnib 0.049 | [6] -0.002 | [7] 0.029 | [8] 0.009

ACY1 (UniProt Q03154)
inactive: lapatinib 0.004 | pictilisib -0.03 | crizotinib 0.049 | [1] -0.015 | duvelisib 0.04 | gandotinib 0.016 | tozasertib 0.032 | doramapimod 0.004 | bafetinib 0.001 | [2] -0.012 | nilotinib 0.022 | [3] 0.001 | dasatinib 0.013 | [4] -0.011 | [5] 0.012 | quisinostat 0.049 | tipifarnib 0.025 | [6] -0.006 | [7] -0.007 | [8] 0.037

(listing goes on)

AHCYL2 (UniProt Q96HN2)
inactive: lapatinib -0.018 | pictilisib 0.008 | crizotinib -0.039 | [1] -0.047 | duvelisib -0.055 | gandotinib 0.034 | tozasertib 0.009 | doramapimod -0.014 | bafetinib -0.02 | [2] 0.046 | nilotinib 0.065 | [3] -0.015 | dasatinib 0.175 | [4] 0.047 | [5] 0.091 | quisinostat -0.076 | tipifarnib 0.028 | [6] -0.024 | [7] -0.019 | [8] -0.011

ACOT8 (UniProt O14734)
inactive: lapatinib 0.033 | pictilisib -0.049 | crizotinib -0.058 | [1] -0.034 | duvelisib -0.041 | gandotinib 0.021 | tozasertib 0.023 | doramapimod 0.038 | bafetinib -0.014 | [2] 0.089 | nilotinib 0.008 | [3] -0.087 | dasatinib 0.1 | [4] 0.014 | [5] 0.019 | quisinostat -0.051 | tipifarnib 0.038 | [6] 0.015 | [7] 0.028 | [8] -0.03
